From article PMC10279920, “Single-molecule visualization of Pif1 helicase translocation on single-stranded DNA” (The Journal of Biological Chemistry, 2023)
Numbering of substitutions follows the chain as printed. For at least one entry, the source does not settle the construct or the ends of the probe. The comparison behind a weaker result is the experiment's own reference, which may not be listed here. At least one verdict was read from the data and is not stated in words by the source. Protein sequences can lack the tags named with them.

Legend:
[1] = biological target: T1, GFP-Pif1 R465A (Saccharomyces cerevisiae) (UniProt P07271); assay: EMSA; settings: no ATP, 5 mM Mg2+, 35 mM Tris-HCl pH 7.5, 1 mM DTT, 5 mM MgCl2, 60 mM KCl, 0.1 mg/ml BSA, 30 min at 30 C, 5 nM ssDNA, recombinant protein, residues 40-859, protein details: N-terminal superfolder GFP, Ni-NTA purified, label: 5' Alexa647, single-stranded DNA
T1 sequence (looked up): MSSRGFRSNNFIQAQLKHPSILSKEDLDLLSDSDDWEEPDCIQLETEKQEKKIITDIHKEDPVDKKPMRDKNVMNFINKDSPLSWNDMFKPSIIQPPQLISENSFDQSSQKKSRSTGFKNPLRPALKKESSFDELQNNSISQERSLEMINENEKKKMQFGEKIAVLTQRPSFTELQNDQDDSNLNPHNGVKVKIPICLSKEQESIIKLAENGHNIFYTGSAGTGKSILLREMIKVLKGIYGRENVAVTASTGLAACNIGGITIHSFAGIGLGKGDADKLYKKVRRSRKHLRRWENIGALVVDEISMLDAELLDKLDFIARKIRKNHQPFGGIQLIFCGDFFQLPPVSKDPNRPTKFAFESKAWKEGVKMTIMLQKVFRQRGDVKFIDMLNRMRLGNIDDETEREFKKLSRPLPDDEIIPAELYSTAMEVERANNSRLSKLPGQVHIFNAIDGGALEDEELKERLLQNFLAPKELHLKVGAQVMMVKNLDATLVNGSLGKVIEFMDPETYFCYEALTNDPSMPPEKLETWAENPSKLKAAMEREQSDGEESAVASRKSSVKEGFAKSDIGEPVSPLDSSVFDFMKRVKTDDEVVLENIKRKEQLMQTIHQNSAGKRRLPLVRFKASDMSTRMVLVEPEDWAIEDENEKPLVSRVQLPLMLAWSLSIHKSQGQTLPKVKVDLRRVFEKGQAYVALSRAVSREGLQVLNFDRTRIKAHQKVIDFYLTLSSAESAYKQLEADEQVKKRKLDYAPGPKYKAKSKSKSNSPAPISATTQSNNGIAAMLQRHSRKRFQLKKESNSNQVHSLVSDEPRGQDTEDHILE

[2] = biological target: T2, GFP-Pif1 N533A (Saccharomyces cerevisiae) (UniProt P07271); assay: EMSA; settings: no ATP, 5 mM Mg2+, 35 mM Tris-HCl pH 7.5, 1 mM DTT, 5 mM MgCl2, 60 mM KCl, 0.1 mg/ml BSA, 30 min at 30 C, 5 nM ssDNA, recombinant protein, residues 40-859, protein details: N-terminal superfolder GFP, Ni-NTA purified, label: 5' Alexa647, single-stranded DNA
T2 sequence (looked up): T1 sequence (looked up) with A426R, N494A

GCTAGCAGTAGCCAGCATCGAACGTACGATCGGTAACGTA [40-nt ssDNA]
binding result [1]: binds more weakly
binding result [2]: binds more weakly
